# Measurements taken from the supplement of paper PMC8728848.
# The list shows a part of the results.
# Assays:
# Assay in all cases: glycan array binding signal (z-score within array); higher = stronger binding
# Settings in all cases: glycan notation: IUPAC condensed, linker removed
# [1] = biological target: Neu5Ac(a2-6)Gal(b1-4)GlcNAc(b1-2)Man(a1-3)[Neu5Ac(a2-3)Gal(b1-4)GlcNAc(b1-2)Man(a1-6)]Man(b1-4)GlcNAc(b1-4)GlcNAc
# How it was run: (§1)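 Glycan array binding is given as a within-array Z-score, which can be read as non-binding when negative. The arrays, 3228 of them, came from the Consortium for Functional Glycomics database and were retained only where the protein sequence was available. Z-scores were averaged across arrays of the same protein sequence at different concentrations or buffers and across linkers.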
# [2] = biological target: Neu5Ac(a2-6)Gal(b1-4)GlcNAc(b1-2)Man(a1-3)[Neu5Ac(a2-6)Gal(b1-4)GlcNAc(b1-2)Man(a1-6)]Man(b1-4)GlcNAc(b1-4)GlcNAc
# How it was run: as §1
# [3] = biological target: Neu5Ac(a2-6)Gal(b1-4)GlcNAc(b1-2)Man(a1-3)[Neu5Ac(a2-6)Gal(b1-4)GlcNAc(b1-2)Man(a1-6)]Man(b1-4)GlcNAc(b1-4)[Fuc(a1-6)]GlcNAc
# How it was run: as §1
# [4] = biological target: Neu5Ac(a2-6)Gal(b1-4)GlcNAc(b1-2)Man(a1-6)Man(b1-4)GlcNAc(b1-4)GlcNAc
# How it was run: as §1
# [5] = biological target: Neu5Ac(a2-6)Gal(b1-4)GlcNAc(b1-2)Man(a1-6)[Gal(b1-4)GlcNAc(b1-2)Man(a1-3)]Man(b1-4)GlcNAc(b1-4)GlcNAc
# How it was run: as §1
# [6] = biological target: Neu5Ac(a2-6)Gal(b1-4)GlcNAc(b1-2)Man(a1-6)[GlcNAc(b1-2)Man(a1-3)]Man(b1-4)GlcNAc(b1-4)GlcNAc
# How it was run: as §1
# [7] = biological target: Neu5Ac(a2-6)Gal(b1-4)GlcNAc(b1-2)Man(a1-6)[Man(a1-3)]Man(b1-4)GlcNAc(b1-4)GlcNAc
# How it was run: as §1
# [8] = biological target: Neu5Ac(a2-6)Gal(b1-4)GlcNAc(b1-2)[Neu5Ac(a2-6)Gal(b1-4)GlcNAc(b1-4)]Man(a1-3)[GlcNAc(b1-4)][Neu5Ac(a2-6)Gal(b1-4)GlcNAc(b1-2)[Neu5Ac(a2-6)Gal(b1-4)GlcNAc(b1-6)]Man(a1-6)]Man(b1-4)GlcNAc(b1-4)GlcNAc
# How it was run: as §1
# [9] = biological target: Neu5Ac(a2-6)Gal(b1-4)GlcNAc(b1-2)[Neu5Ac(a2-6)Gal(b1-4)GlcNAc(b1-4)]Man(a1-3)[GlcNAc(b1-4)][Neu5Ac(a2-6)Gal(b1-4)GlcNAc(b1-4)Man(a1-6)]Man(b1-4)GlcNAc(b1-4)GlcNAc
# How it was run: as §1
# [10] = biological target: Neu5Ac(a2-6)Gal(b1-4)GlcNAc(b1-2)[Neu5Ac(a2-6)Gal(b1-4)GlcNAc(b1-6)]Man(a1-6)[Neu5Ac(a2-6)Gal(b1-4)GlcNAc(b1-2)Man(a1-3)][GlcNAc(b1-4)]Man(b1-4)GlcNAc(b1-4)GlcNAc
# How it was run: as §1
# [11] = biological target: Neu5Ac(a2-6)Gal(b1-4)GlcNAc(b1-3)Gal(b1-3)GlcNAc
# How it was run: as §1
# [12] = biological target: Neu5Ac(a2-6)Gal(b1-4)GlcNAc(b1-3)Gal(b1-4)GlcNAc
# How it was run: as §1
# [13] = biological target: Neu5Ac(a2-6)Gal(b1-4)GlcNAc(b1-3)Gal(b1-4)GlcNAc(b1-2)Man(a1-3)[Neu5Ac(a2-6)Gal(b1-4)GlcNAc(b1-3)Gal(b1-4)GlcNAc(b1-2)Man(a1-6)]GalNAc
# How it was run: as §1
# [14] = biological target: Neu5Ac(a2-6)Gal(b1-4)GlcNAc(b1-3)Gal(b1-4)GlcNAc(b1-3)Gal(b1-4)GlcNAc
# How it was run: as §1
# [15] = biological target: Neu5Ac(a2-6)Gal(b1-4)GlcNAc(b1-3)Gal(b1-4)GlcNAc(b1-3)Gal(b1-4)GlcNAc(b1-2)Man(a1-3)[Neu5Ac(a2-6)Gal(b1-4)GlcNAc(b1-3)Gal(b1-4)GlcNAc(b1-3)Gal(b1-4)GlcNAc(b1-2)Man(a1-6)]GalNAc
# How it was run: as §1
# [16] = biological target: Neu5Ac(a2-6)Gal(b1-4)GlcNAc(b1-3)Gal(b1-4)GlcNAc(b1-3)GalNAc
# How it was run: as §1
# [17] = biological target: Neu5Ac(a2-6)Gal(b1-4)GlcNAc(b1-3)Gal(b1-4)GlcNAc(b1-3)[Neu5Ac(a2-6)Gal(b1-4)GlcNAc(b1-3)Gal(b1-4)GlcNAc(b1-6)]GalNAc
# How it was run: as §1
# [18] = biological target: Neu5Ac(a2-6)Gal(b1-4)GlcNAc(b1-3)Gal(b1-4)GlcNAc(b1-6)[Gal(b1-3)]GalNAc
# How it was run: as §1
# [19] = biological target: Neu5Ac(a2-6)Gal(b1-4)GlcNAc(b1-3)Gal(b1-4)[Fuc(a1-3)]GlcNAc(b1-3)Gal(b1-4)[Fuc(a1-3)]GlcNAc
# How it was run: as §1
# [20] = biological target: Neu5Ac(a2-6)Gal(b1-4)GlcNAc(b1-3)GalNAc
# How it was run: as §1
# [21] = biological target: Neu5Ac(a2-6)Gal(b1-4)GlcNAc(b1-3)[Neu5Ac(a2-6)Gal(b1-4)GlcNAc(b1-6)]GalNAc
# How it was run: as §1
# [22] = biological target: Neu5Ac(a2-6)Gal(b1-4)GlcNAc(b1-6)GalNAc
# How it was run: as §1
# [23] = biological target: Neu5Ac(a2-6)Gal(b1-4)GlcNAc(b1-6)[Gal(b1-3)GlcNAc(b1-3)]Gal(b1-4)Glc
# How it was run: as §1
# [24] = biological target: Neu5Ac(a2-6)Gal(b1-4)GlcNAc(b1-6)[Gal(b1-3)]GalNAc
# How it was run: as §1
# [25] = biological target: Neu5Ac(a2-6)Gal(b1-4)GlcNAc6S
# How it was run: as §1
# Neu5Ac(a2-6)GalNAc = biological target: Neu5Ac(a2-6)GalNAc
# How it was run: as §1
# [26] = biological target: Neu5Ac(a2-6)GalNAc(b1-4)GlcNAc
# How it was run: as §1
# [27] = biological target: Neu5Ac(a2-6)GalNAc(b1-4)GlcNAc6S
# How it was run: as §1
# [28] = biological target: Neu5Ac(a2-6)GlcNAc(b1-4)GlcNAc
# How it was run: as §1
# [29] = biological target: Neu5Ac(a2-6)GlcNAc(b1-4)GlcNAc(b1-4)GlcNAc
# How it was run: as §1
binder,measurement,setting,value
"Langerin K299A/K313A (Homo sapiens), Q9UJ71 (protein) STLNAQIPELKSDLEKASALNTKIRALQGSLENMSKLLKRQNDILQVVSQGWKYFKGNFYYFSLIPKTWYSAEQFCVSRNSHLTSVTSESEQEFLYKTAGGLIYWIGLTKAGMEGDWSWVDDTPFNKVQSARFWIPGEPNNAGNNEHCGNIAAPSLQAWNDAPCDATFLFICKRPYVPSEP",glycan array binding signal (z-score),[1],0.009
same,glycan array binding signal (z-score),[2],-0.141
same,glycan array binding signal (z-score),[3],3.07
same,glycan array binding signal (z-score),[4],-1.29
same,glycan array binding signal (z-score),[5],-0.35
same,glycan array binding signal (z-score),[6],-0.799
same,glycan array binding signal (z-score),[7],0.436
same,glycan array binding signal (z-score),[8],-1.17
same,glycan array binding signal (z-score),[9],-0.195
same,glycan array binding signal (z-score),[10],-0.422
same,glycan array binding signal (z-score),[11],-0.216
same,glycan array binding signal (z-score),[12],-0.894
same,glycan array binding signal (z-score),[13],0.986
same,glycan array binding signal (z-score),[14],-0.708
same,glycan array binding signal (z-score),[15],1.82
same,glycan array binding signal (z-score),[16],-0.902
same,glycan array binding signal (z-score),[17],-0.095
same,glycan array binding signal (z-score),[18],-0.091
same,glycan array binding signal (z-score),[19],-0.9
same,glycan array binding signal (z-score),[20],0.288
same,glycan array binding signal (z-score),[21],-0.504
same,glycan array binding signal (z-score),[22],0.715
same,glycan array binding signal (z-score),[23],-0.74
same,glycan array binding signal (z-score),[24],-0.308
same,glycan array binding signal (z-score),[25],-1.54
same,glycan array binding signal (z-score),Neu5Ac(a2-6)GalNAc,-0.621
same,glycan array binding signal (z-score),[26],-1.13
same,glycan array binding signal (z-score),[27],-0.373
same,glycan array binding signal (z-score),[28],-0.867
same,glycan array binding signal (z-score),[29],-0.318

# A second format for some results above.
binder | measurement | setting | value
Langerin K299A/K313A (Homo sapiens), Q9UJ71 (protein) STLNAQIPELKSDLEKASALNTKIRALQGSLENMSKLLKRQNDILQVVSQGWKYFKGNFYYFSLIPKTWYSAEQFCVSRNSHLTSVTSESEQEFLYKTAGGLIYWIGLTKAGMEGDWSWVDDTPFNKVQSARFWIPGEPNNAGNNEHCGNIAAPSLQAWNDAPCDATFLFICKRPYVPSEP | glycan array binding signal (z-score) | [11] | -0.216
same | glycan array binding signal (z-score) | [23] | -0.74
